Counter-ions that a name gives are not always drawn. This is one part of the list. Single values are uncertain here, since repeats match poorly.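 The cells were human embryonic kidney cells carrying a Renilla luciferase gene, driven by the HSV-TK promoter, on a plasmid put in briefly by transfection. This is the first-round screen of about ten thousand compounds, looking for ones that raise reporter output.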
test system: HEK 293FT; experiment: log relative Renilla luciferase luminescence (reporter expression vs reference, reference not stated) (log (base not stated)); higher = higher recombinant reporter expression; conditions: 10 µM; time after transfection 48 h

Which log does the source give for `Cc1oncc1C(=O)Nc1ccc(C(F)(F)F)cc1` [Leflunomide] here?
Its log is 0.00816.

For `COc1ccc(C(Cl)=C(c2ccc(OC)cc2)c2ccc(OC)cc2)cc1` [Chlorotrianisene], which log is on record?
Its log is -0.0596.

`O=C(O)c1cccnc1Nc1cccc(C(F)(F)F)c1` [Niflumic acid] was tested. Which log did it give?
Its log is 0.0676.

For `CC(CCc1ccccc1)NCC(O)c1ccc(O)c(C(N)=O)c1` (stereo unspecified) [Labetalol hydrochloride], which log is on record?
The log was -0.0127.

Which log does the source give for `CCOC(=O)[C@H](CCc1ccccc1)N[C@@H](C)C(=O)N1Cc2ccccc2C[C@H]1C(=O)O` [Quinapril HCl] here?
Its log is 0.0404.

`Cc1onc(-c2c(Cl)cccc2Cl)c1C(=O)N[C@@H]1C(=O)N2[C@@H]1SC(C)(C)[C@@H]2C(=O)O` [Dicloxacillin sodium salt hydrate] was tested. Which log did it give?
The log was 0.0581.

`CN1C(C)(C)CCCC1(C)C` [Pempidine tartrate] was tested. Which log did it give?
Its log is 0.288.

How did the log turn out when `C[N+](C)(C)CCCCCC[N+](C)(C)C` [Hexamethonium dibromide dihydrate] was run?
The log was 0.116.

With `CC[N+](C)(C)Cc1ccccc1Br` [Bretylium tosylate] as the molecule, how does the log read?
Its log is -0.00375.

With `CN(C)/N=N/c1[nH]cnc1C(N)=O` [Dacarbazine] as the molecule, how does the log read?
Its log is -0.0103.

Which log does the source give for `Cc1cc2c(cc1S(N)(=O)=O)S(=O)(=O)CCC2` [Meticrane] here?
The log was -0.111.

`Clc1cnccn1` [2-Chloropyrazine] was tested. Which log did it give?
Its log is 0.123.

With `NCCNCCNCCNCCN` [Tetraethylenepentamine pentahydrochloride] as the molecule, how does the log read?
Its log is 0.234.

How did the log turn out when `CC1(C)S[C@@H]2[C@H](NC(=O)[C@H](NC(=O)N3CCNC3=O)c3ccccc3)C(=O)N2[C@H]1C(=O)O` [Azlocillin sodium salt] was run?
Its log is -0.374.

For `COC(=O)Nc1nc2cc(C(=O)c3ccccc3)ccc2[nH]1` [Mebendazole], which log is on record?
The log was 0.0569.

With `CSc1ccc2c(c1)C(N1CCN(C)CC1)Cc1ccccc1S2` (stereo unspecified) [Methiothepin maleate] as the molecule, how does the log read?
The log was 0.12.

Which log does the source give for `CC(C(=O)O)c1ccc2c(c1)Cc1cccnc1O2` (stereo unspecified) [Pranoprofen] here?
Its log is -0.206.

For `Cc1c(C)c2c(c(C)c1O)CCC(C)(COc1ccc(CC3SC(=O)NC3=O)cc1)O2` (stereo unspecified) [Troglitazone], which log is on record?
The log was -0.165.

How did the log turn out when `COC(c1ccccc1)(c1ccccc1)[C@H](Oc1nc(C)cc(C)n1)C(=O)O` [Ambrisentan] was run?
Its log is 0.111.

`COc1ccc([C@@H]2CC(=O)c3c(O)cc(O[C@@H]4O[C@H](CO[C@@H]5O[C@@H](C)[C@H](O)[C@@H](O)[C@H]5O)[C@@H](O)[C@H](O)[C@H]4O)cc3O2)cc1O` [Hesperidin] was tested. Which log did it give?
The log was 0.0795.

How did the log turn out when `CC(C)(C(=O)O)c1ccc(C(O)CCCN2CCC(C(O)(c3ccccc3)c3ccccc3)CC2)cc1` (stereo unspecified) [Fexofenadine HCl] was run?
Its log is 0.0554.

`NS(=O)(=O)c1cc(C(=O)O)cc(N2CCCC2)c1Oc1ccccc1` [Piretanide] was tested. Which log did it give?
The log was -0.0137.

For `CN(C)CCCN1c2ccccc2Sc2ccccc21` [Promazine hydrochloride], which log is on record?
Its log is 0.15.

With `Cc1cc(C(C)(C)C)c(O)c(C)c1CC1=NCCN1` [Oxymetazoline hydrochloride] as the molecule, how does the log read?
Its log is -0.219.

With `Nc1c2c(nc3ccccc13)CCCC2` [Tacrine hydrochloride] as the molecule, how does the log read?
The log was -0.187.

How did the log turn out when `CCN(CC)C(=S)SSC(=S)N(CC)CC` [Disulfiram] was run?
Its log is -0.0758.

`C/C(=C(\CCOP(=O)(O)O)SC(=O)c1ccccc1)N(C=O)Cc1cnc(C)nc1N` [Benfotiamine] was tested. Which log did it give?
The log was 0.198.

With `O=C(CCCCCCC(=O)Nc1ccccc1)NO` [Vorinostat] as the molecule, how does the log read?
The log was 1.12.

Which log does the source give for `CC[C@H]1OC(=O)C[C@@H](O)[C@H](C)[C@@H](O[C@@H]2O[C@H](C)[C@@H](O[C@H]3C[C@@](C)(O)[C@@H](O)[C@H](C)O3)[C@H](N(C)C)[C@H]2O)[C@@H](CC=O)C[C@@H](C)C(=O)/C=C/C(C)=C/[C@@H]1CO[C@@H]1O[C@H](C)[C@@H](O)[C@@H](OC)[C@H]1OC` [Tylosin] here?
Its log is 0.0179.

For `C[C@]12C[C@H](O)[C@H]3[C@@H](CCC4=CC(=O)CC[C@@]43C)[C@@H]1CC[C@@H]2C(=O)CO` [Corticosterone], which log is on record?
Its log is -0.108.

How did the log turn out when `CC1(C)S[C@@H]2[C@H](NC(=O)[C@H](C(=O)O)c3ccsc3)C(=O)N2[C@H]1C(=O)O` [Ticarcillin sodium] was run?
The log was 0.16.

With `CN[C@@H]1[C@@H](O)[C@@H](O[C@@H]2[C@@H](O)[C@H](O[C@H]3OC(CN)=CC[C@H]3N)[C@@H](N)C[C@H]2N)OC[C@]1(C)O` [Sisomicin sulfate] as the molecule, how does the log read?
The log was -0.0219.

How did the log turn out when `Cc1cc(NS(=O)(=O)c2ccc(N)cc2)no1` [Sulfamethoxazole] was run?
Its log is 0.0269.

With `O=C1CN(/N=C/c2ccc(-c3ccc([N+](=O)[O-])cc3)o2)C(=O)N1` [Dantrolene sodium salt] as the molecule, how does the log read?
Its log is 0.00284.

How did the log turn out when `CCOC(=O)n1ccn(C)c1=S` [Carbimazole] was run?
The log was 0.0523.

Which log does the source give for `C[C@H](N)[C@H](O)c1cccc(O)c1` [Metaraminol bitartrate] here?
Its log is -0.0382.

With `CCN(CC)CCOC(=O)C(Cc1cccc2ccccc12)CC1CCCO1` (stereo unspecified) [Nafronyl oxalate] as the molecule, how does the log read?
The log was -0.0171.

For `O=C1CN(/N=C/c2ccc([N+](=O)[O-])o2)C(=O)N1` [Nitrofurantoin], which log is on record?
The log was -0.739.

`Cc1ccccc1OCC(O)CO` (stereo unspecified) [Mephenesin] was tested. Which log did it give?
The log was 0.0655.

With `CC(C(=O)O)c1cccc(C(=O)c2ccccc2)c1` (stereo unspecified) [Ketoprofen] as the molecule, how does the log read?
Its log is 0.0655.

For `CCCC1O[C@@H]2C[C@H]3[C@@H]4CCC5=CC(=O)C=C[C@]5(C)[C@H]4[C@@H](O)C[C@]3(C)[C@]2(C(=O)CO)O1` (stereo partly specified) [Budesonide], which log is on record?
Its log is -0.0892.

For `Nc1nc2c(ncn2COCCO)c(=O)[nH]1` [Acyclovir], which log is on record?
Its log is -0.0566.

How did the log turn out when `CC(C)(C)NC(=O)[C@@H]1C[C@@H]2CCCC[C@@H]2CN1C[C@@H](O)[C@H](Cc1ccccc1)NC(=O)[C@H](CC(N)=O)NC(=O)c1ccc2ccccc2n1` [Saquinavir mesylate] was run?
Its log is 0.0863.

How did the log turn out when `CCCCCN(CCCCC)C(=O)C(CCC(=O)O)NC(=O)c1ccc(Cl)c(Cl)c1` (stereo unspecified) [Lorglumide sodium salt] was run?
The log was 0.0303.

How did the log turn out when `COc1c(N2C[C@@H]3CCCN[C@@H]3C2)c(F)cc2c(=O)c(C(=O)O)cn(C3CC3)c12` [Moxifloxacin] was run?
Its log is 0.0179.

`COc1ccc(C(=O)c2ccccc2)c(O)c1` [Oxybenzone] was tested. Which log did it give?
The log was 0.00502.

Which log does the source give for `COc1ncnc(NS(=O)(=O)c2ccc(N)cc2)c1OC` [Sulfadoxine] here?
The log was 0.0781.

`CC(=O)OCC(=O)[C@@]1(O)[C@H](C)C[C@H]2[C@@H]3CCC4=CC(=O)C=C[C@]4(C)[C@@]3(F)[C@@H](O)C[C@@]21C` [Dexamethasone acetate] was tested. Which log did it give?
Its log is 0.0254.

With `CCOC(=O)C1=C(C)NC(C)=C(C(=O)OCC)C1c1ccccc1/C=C/C(=O)OC(C)(C)C` [Lacidipine] as the molecule, how does the log read?
The log was -0.113.

How did the log turn out when `CCOc1cc(CC(=O)N[C@@H](CC(C)C)c2ccccc2N2CCCCC2)ccc1C(=O)O` [Repaglinide] was run?
The log was 0.0269.

For `C#C[C@]1(O)CC[C@H]2[C@@H]3CCc4cc(O)ccc4[C@H]3CC[C@@]21C` [Ethinylestradiol], which log is on record?
The log was 0.0984.

For `CCCCN(CCCC)CCC(O)c1cc2c(Cl)cc(Cl)cc2c2cc(C(F)(F)F)ccc12` (stereo unspecified) [Halofantrine hydrochloride], which log is on record?
The log was -0.556.

How did the log turn out when `C[C@@H](O)[C@H]1C(=O)N2C(C(=O)O)=C(S[C@@H]3CN[C@H](C(=O)N(C)C)C3)[C@H](C)[C@H]12` [Meropenem] was run?
The log was 0.105.

`CC(=O)O[C@H]1C[C@@H]2CC[C@@H]3[C@H](CC[C@@]4(C)[C@H]3C[C@H]([N+]3(C)CCCCC3)[C@@H]4OC(C)=O)[C@@]2(C)C[C@@H]1N1CCCCC1` [Vecuronium bromide] was tested. Which log did it give?
Its log is 0.00284.

`CC1(C)O[C@@H]2C[C@H]3[C@@H]4CCC5=CC(=O)CC[C@]5(C)[C@@]4(F)[C@@H](O)C[C@]3(C)[C@]2(C(=O)CCl)O1` [Halcinonide] was tested. Which log did it give?
Its log is -0.0681.

How did the log turn out when `C[C@]12C=CC(=O)C=C1CC[C@H]1[C@@H]3C[C@@H](O)[C@](O)(C(=O)CO)[C@@]3(C)C[C@H](O)[C@@]12F` [Triamcinolone] was run?
The log was 0.0598.

`CCN(CC)C(=O)/C(C#N)=C/c1cc(O)c(O)c([N+](=O)[O-])c1` [Entacapone] was tested. Which log did it give?
The log was -0.628.

`OC(c1cc(C(F)(F)F)nc2c(C(F)(F)F)cccc12)C1CCCCN1` (stereo unspecified) [Mefloquine hydrochloride] was tested. Which log did it give?
The log was 0.0346.

With `CNCCCC12CCC(c3ccccc31)c1ccccc12` [Maprotiline hydrochloride] as the molecule, how does the log read?
Its log is 0.0669.

`C[C@@H]1C[C@H]2[C@@H]3C[C@H](F)C4=CC(=O)C=C[C@]4(C)[C@@]3(Cl)[C@@H](O)C[C@]2(C)[C@H]1C(=O)COC(=O)C(C)(C)C` [Clocortolone pivalate] was tested. Which log did it give?
Its log is 0.00465.

For `NS(=O)(=O)c1cc(Cl)c(Cl)c(S(N)(=O)=O)c1` [Dichlorphenamide], which log is on record?
The log was -0.00649.

With `CCN1CCCC(OC(=O)C(c2ccccc2)c2ccccc2)C1` (stereo unspecified) [Piperidolate hydrochloride] as the molecule, how does the log read?
The log was -0.0311.

`Cc1onc(-c2c(F)cccc2Cl)c1C(=O)N[C@@H]1C(=O)N2[C@@H]1SC(C)(C)[C@@H]2C(=O)O` [Flucloxacillin sodium] was tested. Which log did it give?
The log was -0.624.

How did the log turn out when `CN(C)CCCSC(=N)N` [Dimaprit dihydrochloride] was run?
The log was -0.0359.

How did the log turn out when `O=C(NCCN1CCOCC1)c1ccc(Cl)cc1` [Moclobemide] was run?
Its log is 0.0725.

How did the log turn out when `CN(C/C=C/c1ccccc1)Cc1cccc2ccccc12` [Naftifine hydrochloride] was run?
The log was 0.0079.

Which log does the source give for `CN1C(=O)OC(C)(C)C1=O` [Trimethadione] here?
Its log is 0.0179.

How did the log turn out when `CC(=O)CCCCn1c(=O)c2c(ncn2C)n(C)c1=O` [Pentoxifylline] was run?
Its log is 0.136.

Which log does the source give for `OCCN1CCN(CCCN2c3ccccc3C=Cc3ccccc32)CC1` [Opipramol dihydrochloride] here?
The log was 0.165.

Which log does the source give for `CC(C)NC[C@H](O)COc1cccc2ccccc12` [(S)-propranolol hydrochloride] here?
Its log is 0.102.

How did the log turn out when `CCCCNc1cc(C(=O)O)cc(S(N)(=O)=O)c1Oc1ccccc1` [Bumetanide] was run?
The log was 0.157.

Source: the supplement of paper PMC7024190
